# Measured values from patent US20220110902A1, “Methods of treating amyloid-beta peptide diseases” (Ecole Polytechnique Federale de Lausanne, priority 2016, published 2022).
# At least one compound was matched to its structure with a doubt left.
# System: SH-SY5Y neuroblastoma cell line expressing the APP Swedish K670N/M671L double mutation (APPSwe)
# Experiment: Immunostaining of intracellular Aβ deposits in APPSwe SH-SY5Y cells
# Type: cell-based, human
# Settings: 24 h; dox 10 μg/mL, NR 3 mM
# Experimental: The SH-SY5Y neuroblastoma cell line expressing the APP Swedish K670N/M671L double mutation (APPSwe) was a kind gift of Prof. Cedazo-Minguez (Karolinska Institute, Sweden). Cells were grown in DMEM/F-12, supplemented with 10% fetal bovine serum (FBS, Gibco), GlutaMAX (100×, Gibco) and penicillin/streptomycin (1×, Gibco). Cells were selected in 4 μg/mL Geneticin® Selective Antibiotic (G418 Sulfate, Sigma) and grown for three generations before experiments with cells plated and passaged at 4×10^3 cells/ml and 60% confluence, respectively. Cells were cultured at 37° C. under a 5% CO2 atmosphere and tested for mycoplasma using Mycoprobe (#CUL001B, R&D systems) following the manufacturer's instructions. Cells were treated with 10 μg/mL dox, NR 1 or 3 mM, ISRIB 0.5 μM (Sigma), as indicated for 24 hours before cell harvesting or fixation. For the immunostaining, cells were fixed with 1× Formal-Fixx (Thermo Scientific) for 15 min. After 15 min permeabilization with 0.1% Triton X-100, cells were blocked in PBS supplemented with 5% fetal bovine serum for 1 hour and immunostained overnight, at 4° C., with the anti-β-Amyloid 1-42 (1:100, Millipore AB5078P). The secondary antibody was coupled to the Alexa-488 fluorochrome (Thermo Scientific), and nuclei were stained with DAPI (Invitrogen, D1306). […]
compound,measurement,value
"C[C@H]1c2cccc(O)c2C(=O)C2=C(O)[C@]3(O)C(=O)C(C(N)=O)=C(O)[C@@H](N(C)C)[C@@H]3[C@@H](O)[C@@H]21 [dox, doxycycline]",intracellular Aβ deposits (anti-β-Amyloid 1-42 immunodetection),markedly reduced
